The target in experiment [1] is HopZ1c::nYFP (and HopZ1c::cYFP in the reciprocal combination) (Pseudomonas syringae). Description: split reporter; BiFC with nYFP and cYFP fusions (both combinations) co-expressed by Agrobacterium infiltration in N. benthamiana leaves; 20 uM dexamethasone; confocal imaging 72-96 hours after induction.
In experiment [2] the target is HopZ2::nYFP (and HopZ2::cYFP in the reciprocal combination) (Pseudomonas syringae). The experiment is described as above.
Experiment [3] has as its target HopZ1b^C/A (Pseudomonas syringae). In words: two-hybrid; split-ubiquitin yeast two-hybrid screen (QIS-Seq): membrane-tethered LexA-VP16-Cub bait against the NubG Arabidopsis cDNA prey library in AP-4 yeast; interacting colonies by growth on SD-LeuTrpHis + 3-AT; prey inserts of ~2000 pooled colonies sequenced (Illumina); enrichment against luciferase bait and library.

Experiment [4] addresses HopZ3^C/A (Pseudomonas syringae). The experiment is described as above.
The target of experiment [5] is HopZ1c^C/A (Pseudomonas syringae). The experiment is described as above.

Results are given in words; binding and its absence hold for the method and conditions named. For some assays here: In cells and extracts the contact can be indirect. For some assays here: A result given as binding can be weak or reduced; the word gives no strength. For some assays here: Where a sequence is shown, tags or fusion partners need not be part of it.

B1: MLO2^Δ1-280::cYFP (and MLO2^Δ1-280::nYFP in the reciprocal combination) (domain or fragment, UniProt Q9SXB6 281-573)
chain: QRSLEKDFKTVVEISPVIWFVAVLFLLTNSYGLRSYLWLPFIPLVVILIVGTKLEVIITKLGLRIQEKGDVVRGAPVVQPGDDLFWFGKPRFILFLIHLVLFTNAFQLAFFAWSTYEFNLNNCFHESTADVVIRLVVGAVVQILCSYVTLPLYALVTQMGSKMKPTVFNDRVATALKKWHHTAKNETKHGRHSGSNTPFSSRPTTPTHGSSPIHLLHNFNNRSVENYPSSPSPRYSGHGHHEHQFWDPESQHQEAETSTHHSLAHESSEPVLASVELPPIRTSKSLRDFSFKK
Take B1: the binding result is recorded as “no binding” in experiment [1] and “binds” in experiment [2].

B2: Arabidopsis thaliana MLO2 (At1g11310), partial clone of the cDNA prey library (domain or fragment, UniProt Q9SXB6 281-573)
chain: B1 chain
As to B2, the binding entry in experiment [3], in experiment [4] and in experiment [5] was “no binding” in each case.

The record behind these values is article PMC3320541.
